This data set concerns MCF7 cells. As to the kind of experiment: Cell uptake and localisation by fluorescent confocal microscopy. The conditions noted are these: 0.5 μM, 30 min exposure.

One compound from patent publication US8796456B2, “Naphthalene diimide compounds” (University College London, priority 2007, dated 2014) can be followed below.

Entries after “also recorded” stand apart in the source; their conditions may differ.

Take `CN(C)CCCNc1cc2c3c(c(NCCCN(C)C)cc4c3c1C(=O)N(CCCN(C)C)C4=O)C(=O)N(CCCN(C)C)C2=O` [Compound 12]: the “localisation within MCF7 cells (confocal microscopy)” value is listed as “localise exclusively in the nucleus; also recorded: localisation in the nucleolus”.
